Whole data set: some 3,200 compounds, median “TSA(without NAD+) / Primary screening (TSA) / delta Tm (K)” near -0.07, cut for the highest 2% near 0.37. The list shows a part of the results.

By UniProt entry, the sequences of proteins in these tests, tags left out. Residues count along the entry.
UniProt Q96EB6, 2-747 limits assumed: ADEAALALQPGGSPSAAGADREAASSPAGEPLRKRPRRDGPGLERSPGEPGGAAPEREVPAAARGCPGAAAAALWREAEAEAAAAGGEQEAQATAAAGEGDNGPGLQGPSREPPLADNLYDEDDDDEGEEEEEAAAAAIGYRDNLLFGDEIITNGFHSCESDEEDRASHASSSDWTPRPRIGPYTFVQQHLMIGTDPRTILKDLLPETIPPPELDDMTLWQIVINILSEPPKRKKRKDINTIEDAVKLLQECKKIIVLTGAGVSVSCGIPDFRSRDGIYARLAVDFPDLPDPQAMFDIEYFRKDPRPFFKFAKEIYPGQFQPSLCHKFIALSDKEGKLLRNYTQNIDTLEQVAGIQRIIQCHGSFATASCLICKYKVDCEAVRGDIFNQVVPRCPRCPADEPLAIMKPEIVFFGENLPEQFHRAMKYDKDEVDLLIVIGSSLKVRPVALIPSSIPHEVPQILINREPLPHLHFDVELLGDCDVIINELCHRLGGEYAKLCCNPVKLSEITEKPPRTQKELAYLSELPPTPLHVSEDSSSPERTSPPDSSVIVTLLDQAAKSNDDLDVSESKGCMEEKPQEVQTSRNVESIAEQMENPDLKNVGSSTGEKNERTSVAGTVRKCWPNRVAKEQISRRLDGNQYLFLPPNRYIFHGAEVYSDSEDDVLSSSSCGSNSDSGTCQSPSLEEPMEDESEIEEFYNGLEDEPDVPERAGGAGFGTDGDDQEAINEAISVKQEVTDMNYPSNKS

This test deals with NAD-dependent deacetylase Sirtuin 1 (human, UniProt Q96EB6). Nature of the test: primary screen, delta tm. On the set-up: single well (n = 1). The settings on record: 10 µM. The essentials:
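Thermal shift of Sirtuin 1 measured without NAD+, compound at 10 µM (n = 1); value is ΔTm, with hits defined as ΔTm > 0.45 K or < −1.5 K. Hits retested at 5, 10, 20 µM (n = 4) and counterscreened on bovine carbonic anhydrase and ABL1 SH2 domain.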
On to `CC(NC(=O)COC(=O)CNC(=O)c1ccc(-c2ccccc2)cc1)C12CC3CC(CC(C3)C1)C2` (centres unmarked), for which the “TSA(without NAD+) / Primary screening (TSA) / delta Tm (K)” value worked out at 0.06 K.

For `COC(=O)c1ncccc1N1CCN(C(=O)CN2CCOCC2)CC1`, the “TSA(without NAD+) / Primary screening (TSA) / delta Tm (K)” value is given as -0.12 K.

On to `COc1ccc2nc(C)c(C(=O)NC34CC5CC(CC(C5)C3)C4)cc2c1`, for which the “TSA(without NAD+) / Primary screening (TSA) / delta Tm (K)” value is given as -0.12 K.

For `COc1ccc(C(CNC(=O)CCc2nc3ccccc3[nH]2)N(C)C)cc1` (centres unmarked), the “TSA(without NAD+) / Primary screening (TSA) / delta Tm (K)” value is reported as -0.11 K.

Take `COc1ccc(N(C)S(=O)(=O)c2cccc(C(=O)OCc3ccc(C)cc3)c2)cc1`: the “TSA(without NAD+) / Primary screening (TSA) / delta Tm (K)” value is given as -0.07 K.

As for `Cc1ccc(-n2c3nc4ccccc4nc3c3c(=N)oc(C)nc32)cc1`, the “TSA(without NAD+) / Primary screening (TSA) / delta Tm (K)” value stood at 0.06 K.

For the compound `CC(C)CC1CCCC(CC(C)C)N1` (centres unmarked), the “TSA(without NAD+) / Primary screening (TSA) / delta Tm (K)” value is -0.05 K.

Consider `COc1cccc(/C=C2/Oc3cc(O)ccc3C2=O)c1OC(F)F`, for which the “TSA(without NAD+) / Primary screening (TSA) / delta Tm (K)” value is reported as -0.13 K.

For the compound `NC(=O)c1cc(N2CCN(CC(=O)N3CCCCCC3)CC2)nc2ccccc12`, the “TSA(without NAD+) / Primary screening (TSA) / delta Tm (K)” value was 0.02 K.

For `O=C(Nc1cccc2cccnc12)c1ccc2c(c1)C(=O)c1ccccc1-2`, the “TSA(without NAD+) / Primary screening (TSA) / delta Tm (K)” value stood at 0.35 K.

For the compound `CC(=O)NC12CC3CC(C1)CC(C(=O)OC(C)C(=O)Nc1ccccc1-c1ccccc1)(C3)C2` (centres unmarked), the “TSA(without NAD+) / Primary screening (TSA) / delta Tm (K)” value is reported as -0.02 K.

For the compound `Cc1[nH]c2ccc(C(=O)N3CCC(C(N)=O)CC3)cc2c1C`, the “TSA(without NAD+) / Primary screening (TSA) / delta Tm (K)” value is -0.08 K.

Regarding `COCCCCCN`, the “TSA(without NAD+) / Primary screening (TSA) / delta Tm (K)” value is 0.05 K.

As for `N#CCCC(C#N)CN1CCC(CCc2ccc(O)cc2)CC1` (centres unmarked), the “TSA(without NAD+) / Primary screening (TSA) / delta Tm (K)” value is listed as -0.31 K.

As to `CC1(C)CN(CC(F)(F)F)CCN1CC(=O)NCc1ccccc1`, the “TSA(without NAD+) / Primary screening (TSA) / delta Tm (K)” value is -0.24 K.

`CC(O)CC(C)(C)CNC(=O)Nc1ccc(F)cc1` (centres unmarked): the “TSA(without NAD+) / Primary screening (TSA) / delta Tm (K)” value is given as -0.13 K.

On to `Cc1ccc2[nH]c3c(c2c1)CN(c1ncccn1)CC3`, for which the “TSA(without NAD+) / Primary screening (TSA) / delta Tm (K)” value is recorded as -0.02 K.

As for `CCc1cccc2c(C(=O)COC(=O)CN3CCCCCC3=O)c[nH]c12`, the “TSA(without NAD+) / Primary screening (TSA) / delta Tm (K)” value was determined as 0.02 K.

`Cc1ccc(-c2nnc(SCC(=O)NC(=O)NC(C)C)n2N)cc1`: the “TSA(without NAD+) / Primary screening (TSA) / delta Tm (K)” value is recorded as -0.21 K.

On to `COC(=O)C1(CNc2ncnc3c(C)csc23)CC1`, for which the “TSA(without NAD+) / Primary screening (TSA) / delta Tm (K)” value is recorded as -0.03 K.

As to `COC(=O)CN`, the “TSA(without NAD+) / Primary screening (TSA) / delta Tm (K)” value was 0.06 K.

Take `CCN(CC)c1ccc(C(=O)C(C#N)C(=O)N2CCCC2)cn1` (centres unmarked): the “TSA(without NAD+) / Primary screening (TSA) / delta Tm (K)” value is recorded as 0.15 K.

For `CCOC(=O)c1sc2ncnc(N3CCCC(C(N)=O)C3)c2c1C` (centres unmarked), the “TSA(without NAD+) / Primary screening (TSA) / delta Tm (K)” value is listed as -0.28 K.

As for `Cc1ccc(-c2csc3ncn(CCC(=O)Nc4cccc(-c5nc(C)no5)c4)c(=O)c23)cc1`, the “TSA(without NAD+) / Primary screening (TSA) / delta Tm (K)” value is -0.31 K.

Take `NC(=O)C1CCN(c2ncnc3ccccc23)CC1`: the “TSA(without NAD+) / Primary screening (TSA) / delta Tm (K)” value is recorded as -0.12 K.

Consider `Cc1nn(C)cc1CCN`, for which the “TSA(without NAD+) / Primary screening (TSA) / delta Tm (K)” value was -0.15 K.

On to `O=C(O)c1cc2c(ccc3cc(Br)ccc32)oc1=O`, for which the “TSA(without NAD+) / Primary screening (TSA) / delta Tm (K)” value worked out at 0.29 K.

Take `COC(=O)c1[nH]c(C)c(C(=O)/C=C(/O)C(=O)NCCN2CCOCC2)c1C`: the “TSA(without NAD+) / Primary screening (TSA) / delta Tm (K)” value was -0.15 K.

For the compound `CC(NC(=O)COC(=O)c1cccnc1SCC(=O)Nc1ccc2c(c1)OCO2)C12CC3CC(CC(C3)C1)C2` (centres unmarked), the “TSA(without NAD+) / Primary screening (TSA) / delta Tm (K)” value is recorded as 0.07 K.

For the compound `O=C(CSc1ccccc1C(=O)OCc1cc([N+](=O)[O-])cc2c1OCOC2)NC12CC3CC(CC(C3)C1)C2`, the “TSA(without NAD+) / Primary screening (TSA) / delta Tm (K)” value is reported as 0.02 K.

For the compound `NC(=O)c1csc(C(=O)N2CCC(COCc3ccccc3)C2)c1` (centres unmarked), the “TSA(without NAD+) / Primary screening (TSA) / delta Tm (K)” value was -0.08 K.

Regarding `COc1cccc(CN(C(=O)CN2C(=O)c3ccccc3S2(=O)=O)C23CC4CC(CC(C4)C2)C3)c1`, the “TSA(without NAD+) / Primary screening (TSA) / delta Tm (K)” value is reported as -0.03 K.

As to `NC(=O)Cc1ccc(NC(=O)c2cc(Br)ccc2F)cc1`, the “TSA(without NAD+) / Primary screening (TSA) / delta Tm (K)” value is given as 0.09 K.

As for `O=C(Nc1cccc(S(=O)(=O)N2CCOCC2)c1)c1cc(-c2ccccc2)nn1-c1ccccc1`, the “TSA(without NAD+) / Primary screening (TSA) / delta Tm (K)” value came out at 0.09 K.

For `CC(Nc1cccc(C(N)=O)c1)C1CN(Cc2ccccc2)CCO1` (centres unmarked), the “TSA(without NAD+) / Primary screening (TSA) / delta Tm (K)” value was -0.18 K.

For the compound `COC(=O)c1ccc2[nH]c3c(c2c1)CN(C(=O)C(C)C)CC3`, the “TSA(without NAD+) / Primary screening (TSA) / delta Tm (K)” value is -0.14 K.

For the compound `COc1ccc(-c2cc(NC(=O)CCNC(=O)c3ccc(Cl)cc3)ccc2OC(F)F)cc1`, the “TSA(without NAD+) / Primary screening (TSA) / delta Tm (K)” value turned out to be 0.12 K.

On to `CC(C)c1nnc(S)[nH]1`, for which the “TSA(without NAD+) / Primary screening (TSA) / delta Tm (K)” value was -0.03 K.

As for `COCCN(CC(=O)Nc1ccccc1C(F)(F)F)C(=O)Cc1csc(-c2ccsc2)n1`, the “TSA(without NAD+) / Primary screening (TSA) / delta Tm (K)” value is -0.12 K.

Consider `NC(=O)C1CCN(c2ncnc3sc4c(c23)CCC4)CC1`, for which the “TSA(without NAD+) / Primary screening (TSA) / delta Tm (K)” value is on record as -0.21 K.

With `CCCCc1ccc(Nc2nnc(SCC(=O)Nc3ccc(N4CCN(Cc5ccccc5)CC4)cc3)s2)cc1`, the “TSA(without NAD+) / Primary screening (TSA) / delta Tm (K)” value is given as 0.08 K.

On to `CSCCOC(=O)c1ccc2[nH]c(C(F)F)nc2c1`, for which the “TSA(without NAD+) / Primary screening (TSA) / delta Tm (K)” value was -0.08 K.

Turning to `c1nc(N2CCNCC2)c2sccc2n1`, the “TSA(without NAD+) / Primary screening (TSA) / delta Tm (K)” value is -0.08 K.

For the compound `CCCOc1cccc(C2C(C(=O)c3ccc(C)o3)=C(O)C(=O)N2CCCN2CCOCC2)c1` (centres unmarked), the “TSA(without NAD+) / Primary screening (TSA) / delta Tm (K)” value is reported as -0.17 K.

For the compound `CCO/C=C1/C(=O)N(c2ccc(S(=O)(=O)N3CCOCC3)cc2)C(=O)c2ccccc21`, the “TSA(without NAD+) / Primary screening (TSA) / delta Tm (K)” value is recorded as 0.02 K.

In the case of `Fc1ccc2[nH]cc(C3CCNCC3)c2c1`, the “TSA(without NAD+) / Primary screening (TSA) / delta Tm (K)” value was -0.24 K.

Regarding `C=CCOc1ccc(C(=O)C2=C(O)C(=O)N(CCCN3CCOCC3)C2c2ccc(F)cc2)cc1` (centres unmarked), the “TSA(without NAD+) / Primary screening (TSA) / delta Tm (K)” value is recorded as -0.05 K.

For the origin of these results see paper PMC6925144, “A prospective compound screening contest identified broader inhibitors for Sirtuin 1” (Scientific Reports, 2019).
